# Data from PubChem BioAssay AID493014 (National Center for Advancing Translational Sciences (NCATS), 2011).
# Several values for one entry are separate records, joined by “and”; a condition that tells them apart may be missing. Equal entries are not always repeated. Some of the results follow. These are further read-outs of the screen, such as a control signal, another cell line or another target. No call is given for them. Most of these compounds were active or inconclusive in the main read-out, so they are no random draw. Potencies come from curve fits of mixed quality, noted in brackets.
# Assay: qHTS Assay to Find Inhibitors of Chronic Active B-Cell Receptor Signaling
# Details: ABC-DLBCL IkBa-CBG/CBR reporter, luminescence ratio (green luciferase fused to IkBa over red control in TMD8 lymphoma cells), 4 h
# In short: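 Concentration-response series (up to 46 uM) were applied to TMD8 dual-reporter cells for 4 h at 37C with doxycycline. Green/red ratio, after filter-overlap correction, defined %Activity; red signal alone was normalised to basal cells and zero luminescence.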
# [1] = measured here: CBR red luminescence, cell number
# [2] = measured here: IkBa-CBG green luminescence
Compound,AC50 [1],AC50 [2]
NS(=O)(=O)c1ccc(CCNC(=S)NC2CCCC2)cc1,"1.26 µM [rising, partial curve, poor fit]",–
C=CCN1CC(=O)N2C(c3ccccc3)c3[nH]c4ccccc4c3C[C@H]2C1=O (stereo partly drawn),"14.1 µM [falling, single point]",–
COc1ccc(/C=C/c2onc(C)c2S(=O)(=O)N2CCC(C(=O)N3CCCCC3)CC2)cc1,"4.47 µM [rising, partial curve, poor fit]",–
Cc1ccc(-c2cn(-c3ccc(OC(F)F)cc3)c3[n+]2CCCCC3)cc1,"5.62 µM [rising, single point]",–
CN(C)c1cccc2c1c(NC(=O)Nc1ccccc1)nn2C,"3.16 µM [rising, partial curve, poor fit]",–
O=S(=O)(Nc1cc(C(F)(F)F)ccc1N1CCOCC1)c1ccc2ccccc2c1,"29.1 µM [falling, single point]",–
CC(C)(C)OC(=O)NCCCCCNC(=O)c1[nH]cnc1C(=O)Nc1ccccc1,"20.6 µM [falling, single point]",–
O=C(CSCc1ccc(Cl)cc1)Nc1cccc(C(=O)Nc2ccccc2C(=O)O)c1,"20.6 µM [falling, partial curve, poor fit]",–
COc1ccc(/C(N)=N/OC(=O)C2CCCCC2)cc1OC,"2.24 µM [rising, partial curve, poor fit]",–
CCC(=O)N(Cc1cc2ccc(C)cc2n2nnnc12)C1CCCCC1,"0.092 µM [rising, full curve]",–
Cc1cc(C)cc(N(CC(=O)Nc2ccccc2)C2=NC3CS(=O)(=O)CC3S2)c1 (stereo not drawn),"12.6 µM [falling, partial curve, poor fit]",–
O=C(CSc1nnc2ncccn12)N1CCCCCC1,"32.6 µM [rising, single point]",–
COc1ccc(C#Cc2c(-c3ccccc3)n(-c3ccccc3)c3ccc(CO)cc23)cc1,"9.2 µM [rising, partial curve]",–
O=C(Nc1ccccc1)Nc1n[nH]c2nnc(-c3ccccc3)c(-c3ccccc3)c12,"11.2 µM [falling, partial curve, poor fit]",–
Cn1c2ccsc2c2ncn(Cc3ccc(F)cc3)c(=O)c21,"1.84 µM [rising, full curve] and 2.91 µM [rising, partial curve, poor fit]",–
C[C@H]1C=C(C(=O)NC2CC2)O[C@@H](OCc2ccc(CO)cc2)C1,"22.4 µM [rising, partial curve, poor fit]",–
Cc1cccc(-c2nc(=S)c3c(o2)CCCC3)c1,"25.9 µM [rising, single point]",–
COc1ccc(NC(=O)Nc2cccnc2)cc1,"10 µM [falling, partial curve, poor fit]",–
O=C1Nc2ccccc2C1=Nc1ccc(Cl)cc1,"1.26 µM [falling, full curve, poor fit]",–
Cc1ccc(C(=O)Nc2ccccc2-c2ccccc2)cc1S(=O)(=O)Nc1ccccc1,"16.4 µM [falling, single point]",–
OC(COc1ccc2ccccc2c1)CN1CCCC1 (stereo not drawn),"2.82 µM [falling, partial curve]",–
CCc1ccc(Oc2cc(Cl)nc(N)n2)cc1,"4.61 µM [rising, full curve, poor fit]",–

# Record cards, as listed above.
# O=C(CSc1nnc2ncccn12)N1CCCCCC1 as listed: AC50 [1]: 32.6 µM [rising, single point]
# COc1ccc(/C=C/c2onc(C)c2S(=O)(=O)N2CCC(C(=O)N3CCCCC3)CC2)cc1 as listed: AC50 [1]: 4.47 µM [rising, partial curve, poor fit]
# Cc1cccc(-c2nc(=S)c3c(o2)CCCC3)c1 as listed: AC50 [1]: 25.9 µM [rising, single point]
# Cc1ccc(C(=O)Nc2ccccc2-c2ccccc2)cc1S(=O)(=O)Nc1ccccc1 as listed: AC50 [1]: 16.4 µM [falling, single point]

# Following part

Compound,AC50 [1],AC50 [2]
NNC(=O)c1[nH]c2ccc(Cl)cc2c1-c1ccccc1,"3.16 µM [rising, full curve]","3.98 µM [falling, full curve]"
Cc1ccc(CNC(=O)c2cn(C)c3ccc(S(=O)(=O)N4CCOCC4)cc3c2=O)cc1,"3.16 µM [falling, single point]",–
CCn1c(NCc2cc(OC)c(OC)c(OC)c2)nc2ccccc21,"0.562 µM [rising, full curve, poor fit]",–
CCn1cc(C(=O)NCCCOC)c2cc(OC)c(OC)cc2c1=O,"0.366 µM [falling, full curve, poor fit]",–
CCOc1cc(C(=O)Nc2nnc(CC)s2)ccc1OCC(=O)N1CCOCC1,"3.55 µM [falling, partial curve, poor fit]",–
COC(=O)c1cc(C)cc(=O)o1,"0.112 µM [rising, full curve, poor fit]",–
NS(=O)(=O)c1ccc(NC(=S)NNC(=O)c2cccs2)cc1,"11.2 µM [falling, partial curve]",–
Cc1cc(C)n2c(Nc3ccc4c(c3)OCCO4)c(-c3ccco3)nc2n1,"20.6 µM [rising, single point]",–
Cc1cccc(NC(=O)CN(C)S(=O)(=O)c2cccc3cccnc23)c1C,"0.112 µM [rising, full curve, poor fit]",–
Cc1ccc2c(c1)[C@H]1[C@H](CO2)[C@H](c2ccccc2)[C@]2(C)C(=O)Nc3cc(F)c(F)cc3C(=O)N12,"2.06 µM [falling, full curve]",–
Nc1nnnn1/N=C/c1cc([N+](=O)[O-])ccc1O,"20 µM [falling, single point]",–
CCOc1cc(/C=N/Nc2cc(C)nc3ccc(C)cc23)ccc1O,"35.5 µM [falling, single point]",–
Cc1ccc(NC(=O)NNC(=O)c2cc3ccccc3cc2O)c(C)c1,"35.5 µM [rising, single point]",–
COc1ccc(-c2nnc(Nc3nc4c(OC)cccc4s3)o2)cc1,"1.26 µM [falling, full curve]",–
CN(C)CCCn1c(N)c(C#N)c2nc3ccccc3nc21,"14.1 µM [falling, partial curve]",–
CN(c1cccc(NC(=O)c2ccc(C(C)(C)C)cc2)c1)S(C)(=O)=O,"11.2 µM [falling, partial curve]",–
O=C(/C=C/c1ccccc1)Nc1cccnc1Cl,"14.1 µM [falling, partial curve]",–
N=c1n(CCO)c2ccccc2n1CCOc1ccc(Cl)cc1Cl,"12.6 µM [falling, partial curve]",–
CCn1c2ccccc2c2cc(/C=N/NC(=O)c3ccc(O)cc3)ccc21,"2.06 µM [falling, full curve]",–
COc1cc2c(cc1OC)CN(C(=O)CCCOc1ccc(Cl)cc1Cl)CC2,"29.1 µM [falling, single point]",–
Nc1cccn2c(-c3ccc(Cl)cc3)cnc12,"35.5 µM [falling, single point]",–
CSc1nc(N)nc(SC2C=CCCC2)c1C#N (stereo not drawn),"10.3 µM [rising, partial curve, poor fit]",–

Compound,AC50 [1],AC50 [2]
NC(=O)c1sc2nc(-c3ccco3)ccc2c1N,"22.4 µM [falling, single point]",–
O=C(CNC(=O)c1ccccc1)OCc1nnc(-c2ccccc2)o1,"5.8 µM [rising, partial curve, poor fit]",–
CCCc1cc(N2CCOCC2)n2ncc(-c3ccccc3)c2n1,"10 µM [rising, partial curve, poor fit]",–
COc1ccc(CC(=O)Nc2nnc(-c3cccc([N+](=O)[O-])c3)s2)cc1,"0.116 µM [rising, full curve, poor fit]",–
CCOC(=O)c1sc(-c2ccc(Br)cc2)cc1N,"0.112 µM [rising, full curve, poor fit]",–
CC(=O)NNc1ncnc2c1cnn2-c1ccc(C)c(C)c1,"10 µM [falling, partial curve]",–
C/C(CC(=O)NC(C)(C)C)=N\NC(=O)c1ccco1,"10.3 µM [falling, single point]",–
CCCCNc1c(-c2ccc(SC(C)CC)cc2)nc2cnccn12 (stereo not drawn),"3.26 µM [rising, partial curve]",–
C/C(=N\NC(=S)NC(C)C)c1ccco1,"22.4 µM [falling, single point]","35.5 µM [falling, single point]"
CC(C(O)c1ccc(O)cc1)N1CCC(Cc2ccccc2)CC1 (stereo not drawn),"35.5 µM [falling, single point]",–
O=C(CCCN1C(=O)/C(=C\c2cccs2)SC1=S)Nc1ccc(O)cc1,"15.8 µM [falling, single point]","11.2 µM [falling, partial curve, poor fit]"
CCC(C(=O)NC1CCCCC1)N(C(=O)c1snc(C(N)=O)c1N)c1ccc(OC)cc1OC (stereo not drawn),"3.55 µM [rising, single point]",–
CC1Cc2ccccc2N1C(=O)Cc1cccs1 (stereo not drawn),"0.231 µM [rising, full curve, poor fit]",–
Fc1ccc(OCc2nc(-c3cccs3)no2)cc1,"35.5 µM [falling, single point]",–
COc1ccc2c(c1)CCC/C2=N\NC(=O)c1ccoc1C,"18.4 µM [falling, partial curve]",–
COc1ccccc1CN1C[C@@H]2C[C@@H](c3[nH]c4ccc(C)cc4c3C)N3CCC[C@@]23C1=O,"35.5 µM [falling, single point]",–
CCc1nc(Nc2ccc(N3CCN(C(C)=O)CC3)cc2)c2oc3ccccc3c2n1,"2 µM [falling, partial curve, poor fit]",–
COc1ccc(C2=CC(=O)C[C@H](c3ccc(F)cc3)C2)c(OC)c1,"29.1 µM [falling, single point]",–
O=C(c1ccco1)N1CCC(c2ccccc2)C1 (stereo not drawn),"15.8 µM [falling, single point]",–
C=CCC(CC=C)(NC(=O)c1ccccc1C(=O)O)c1ccccc1,"6.51 µM [rising, single point]",–
O=C(O)CCSc1ncnc2sc(-c3ccccc3)cc12,"2.82 µM [falling, full curve]",–
